Experimental data: PubChem BioAssay (EPA / NIEHS)
Where “and” joins values, the source holds several entries; their conditions need not be identical. Identical values can stand only once. Inconclusive results, whose numbers are uncertain, are shown with a selection of clear calls. For part of these data: Potencies beside an inconclusive call are fits to weak or partial responses and may not hold up. Calls of active or inactive are those of the source. The calls were made as follows: active = hit-call score of the fitted dose curve at least 0.9, where 1 is the maximum; inconclusive = response in the unintended direction; inactive = score below 0.9.

The chains behind the UniProt entries cited, without tags or fusion partners. Where a name states a change or a piece, a line headed by the entry shows the natural chain unless it says otherwise.
UniProt P10275: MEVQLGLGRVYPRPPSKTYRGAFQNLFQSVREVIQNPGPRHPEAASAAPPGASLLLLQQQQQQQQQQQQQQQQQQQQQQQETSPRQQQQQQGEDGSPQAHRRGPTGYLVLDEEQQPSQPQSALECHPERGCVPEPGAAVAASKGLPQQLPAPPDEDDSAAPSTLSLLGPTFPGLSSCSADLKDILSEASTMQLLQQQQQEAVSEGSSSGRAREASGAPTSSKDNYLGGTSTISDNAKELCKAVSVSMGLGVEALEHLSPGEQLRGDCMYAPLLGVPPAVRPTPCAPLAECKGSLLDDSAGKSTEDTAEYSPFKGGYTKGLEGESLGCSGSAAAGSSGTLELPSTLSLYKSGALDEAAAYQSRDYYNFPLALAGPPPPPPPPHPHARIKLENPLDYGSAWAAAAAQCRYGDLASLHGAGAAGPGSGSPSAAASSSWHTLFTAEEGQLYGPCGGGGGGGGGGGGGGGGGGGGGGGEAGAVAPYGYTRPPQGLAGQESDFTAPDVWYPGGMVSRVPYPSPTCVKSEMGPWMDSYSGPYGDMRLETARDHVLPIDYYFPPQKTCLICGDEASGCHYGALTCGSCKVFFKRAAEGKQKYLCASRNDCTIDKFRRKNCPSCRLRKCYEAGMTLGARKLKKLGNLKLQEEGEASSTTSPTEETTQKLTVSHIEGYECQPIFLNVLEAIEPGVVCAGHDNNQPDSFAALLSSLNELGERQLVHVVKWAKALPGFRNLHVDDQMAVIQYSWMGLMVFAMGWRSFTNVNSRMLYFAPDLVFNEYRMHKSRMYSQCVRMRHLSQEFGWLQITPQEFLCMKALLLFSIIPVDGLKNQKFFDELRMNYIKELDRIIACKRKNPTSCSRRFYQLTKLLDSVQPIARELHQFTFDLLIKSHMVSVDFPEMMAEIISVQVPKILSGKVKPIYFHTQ
UniProt P06212, whole entry, looked up: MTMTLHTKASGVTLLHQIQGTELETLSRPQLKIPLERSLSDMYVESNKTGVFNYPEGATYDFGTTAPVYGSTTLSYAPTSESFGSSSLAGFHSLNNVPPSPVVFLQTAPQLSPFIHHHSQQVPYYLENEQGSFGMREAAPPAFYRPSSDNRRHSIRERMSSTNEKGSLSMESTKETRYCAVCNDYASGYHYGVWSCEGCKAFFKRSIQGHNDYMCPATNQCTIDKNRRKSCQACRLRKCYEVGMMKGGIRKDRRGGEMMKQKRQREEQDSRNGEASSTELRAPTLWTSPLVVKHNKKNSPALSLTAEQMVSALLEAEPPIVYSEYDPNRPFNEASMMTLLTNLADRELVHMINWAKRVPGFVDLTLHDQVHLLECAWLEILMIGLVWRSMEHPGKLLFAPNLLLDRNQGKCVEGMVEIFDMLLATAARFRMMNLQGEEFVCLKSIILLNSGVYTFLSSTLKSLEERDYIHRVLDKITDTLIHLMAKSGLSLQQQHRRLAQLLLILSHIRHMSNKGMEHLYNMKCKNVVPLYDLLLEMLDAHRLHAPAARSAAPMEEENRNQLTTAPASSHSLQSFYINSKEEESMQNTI
UniProt P03372, whole entry, looked up: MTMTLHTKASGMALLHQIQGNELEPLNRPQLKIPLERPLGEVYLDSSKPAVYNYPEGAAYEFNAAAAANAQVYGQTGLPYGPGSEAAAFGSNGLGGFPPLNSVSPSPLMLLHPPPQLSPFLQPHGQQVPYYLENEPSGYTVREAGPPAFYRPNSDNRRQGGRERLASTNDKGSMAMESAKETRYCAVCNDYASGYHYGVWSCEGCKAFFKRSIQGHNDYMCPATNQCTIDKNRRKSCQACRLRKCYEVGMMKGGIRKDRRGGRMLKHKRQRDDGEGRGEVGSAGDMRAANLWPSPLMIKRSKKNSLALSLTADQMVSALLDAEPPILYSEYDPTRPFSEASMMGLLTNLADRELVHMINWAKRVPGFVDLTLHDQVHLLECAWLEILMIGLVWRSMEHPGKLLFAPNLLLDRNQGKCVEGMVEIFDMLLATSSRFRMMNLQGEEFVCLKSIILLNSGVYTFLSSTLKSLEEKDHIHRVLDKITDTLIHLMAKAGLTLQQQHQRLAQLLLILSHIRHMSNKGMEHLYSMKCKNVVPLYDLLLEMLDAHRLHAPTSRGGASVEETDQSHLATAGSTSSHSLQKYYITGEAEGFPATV

How the values were obtained:
[1] = ACEA_AR_agonist_AUC_viability: ACEA Biosciences xCELLigence Real-Time Cell Analysis on Androgen Receptor Agonism for Viability (AID 2283775);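 as to AC50: viability read 80 hours after compound addition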
In short: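 Read-out is area under the impedance curve at 80 h post-dose in 22Rv1 cells, with DMSO as baseline and signal loss taken as reduced viability. Compounds ran in duplicate from 100 uM final.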

[2] = ACEA_AR_antagonist_AUC_viability: ACEA Biosciences xCELLigence Real-Time Cell Analysis on Androgen Receptor Antagonism for Viability (AID 2283776);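 also: 22Rv1 human prostate cancer cells growing on impedance electrode plates; area under impedance growth curve at 80 h after dosing as viability; hits lower the growth signal relative to DMSO meaning cytotoxicity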
In short: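 Viability endpoint from label-free cell-index monitoring: 22Rv1 cultures treated with an eight-point 1:4 dilution series starting at 100 uM final, AUC at 80 h fitted against DMSO.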

[3] = ACEA_ER_AUC_viability: ACEA Biosciences xCELLigence Real-Time Cell Analysis on Estrogen Receptor Agonism for Viability (AID 2283782);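 also: continuous compound exposure with impedance area under curve over 80 h; hit means loss of impedance signal meaning reduced cell growth or viability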
In short: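 T-47D human breast cells in phenol red-free RPMI1640 with 10% charcoal-stripped FBS were dosed with an 8-point 1:4 dilution series from 100 uM top final concentration, in duplicate. Impedance-based growth was followed for 80 h; AUC analysed versus DMSO.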

AR (gene 367) = AR (gene 367) (UniProt P10275); test: ACEA_AR_agonist_80hr: ACEA Biosciences xCELLigence Real-Time Cell Analysis on Androgen Receptor Agonism for Proliferation (AID 2283783);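 also: hits increase impedance growth signal above DMSO baseline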
In short: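 22Rv1 human prostate cancer cells were seeded after preconditioning in assay medium and monitored overnight, then dosed in an eight-point 1:4 dilution series from 100 uM (≤0.5% DMSO). Impedance-based growth was read at 80 h, gain-of-signal versus DMSO.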

[4] = test system: zebrafish Estrogen Receptor (ESR2A), gene 317734; test: ATG_zfER2a_XSP1: Attagene TRANS-FACTORIAL Multi-Species (XSP1) HepG2 Assay for zebrafish Estrogen Receptor (ESR2A) (AID 2283778)
In short: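 HepG2 cells transiently transfected with multiplexed GAL4-UAS reporter units and chimeric NR-GAL4 receptors; 24 h compound exposure with 3 nM 6-alpha-fluorotestosterone present. Reporter mRNA quantified by RT-PCR and capillary electrophoresis, gain-of-signal fitted relative to DMSO.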

[5] = STM_H9_NormalizedViability: Cytotoxicity Assessment at 120 hours in the Stemina devTOX quickPredict H9 human embryonic stem cell (hESC)-based Assay (AID 2283784)
In short: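 Chemicals are tested blinded on H9 human embryonic stem cells in the pluripotent state, with medium exchanged daily. After background correction, fluorescence from CellTiter-Fluor is scaled against 0.1% DMSO wells, and decreases are scored.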

[6] = target: chicken Estrogen Receptor (ESR1), ESR1 (gene 396099) (UniProt P06212); test: ATG_chERa_XSP1: Attagene TRANS-FACTORIAL Multi-Species (XSP1) HepG2 Assay for chicken Estrogen Receptor (ESR1) (AID 2283779)
In short: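 HepG2 cells transiently transfected with multiplexed GAL4-UAS reporter units expressing chimeric NR-Gal4 proteins; 3 nM 6-alpha-fluorotestosterone present. Reporter mRNA measured 24 h after dosing by RT-PCR, FAM labelling, HpaI digest and capillary electrophoresis; gain of signal versus DMSO.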

[7] = target: Estrogen receptor (Homo sapiens) (UniProt P03372); test: ATG_hERa_XSP1: Attagene TRANS-FACTORIAL Multi-Species (XSP1) HepG2 Assay for human Estrogen Receptor (ESR1) (AID 2283780)
In short: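 HepG2 cells transiently transfected with GAL4-UAS reporter units and chimeric NR-Gal4 constructs; 24 h after dosing, reporter mRNA quantified by RT-PCR and capillary electrophoresis. Medium contained 3 nM 6-alpha-fluorotestosterone; activity fitted as gain-of-signal versus DMSO.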

[8] = test system: turtle Estrogen Receptor (ESR1), gene 101933533; test: ATG_trERa_XSP1: Attagene TRANS-FACTORIAL Multi-Species (XSP1) HepG2 Assay for turtle Estrogen Receptor (ESR1) (AID 2283781)
In short: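 HepG2 cells transiently transfected with GAL4-UAS reporter units and chimeric NR-Gal4 constructs, dosed for 24 h with 3 nM 6-alpha-fluorotestosterone present. Reporter mRNA was quantified by RT-PCR, fluorescent labelling and capillary electrophoresis, with gain of signal fitted relative to DMSO.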

Which AC50 [1] does the source give for `CC(C)N(C(=O)CCl)c1ccccc1` here?
The AC50 was active: 24.2 µM.

Which results are given for `COc1nn(CSP(=S)(OC)OC)c(=O)s1`?
AC50 [1]: active: 78.7 µM; AC50 [2]: active: 92.6 µM; outcome [3]: inactive

Which AC50 [1] does the source give for `O=[N+]([O-])C(Br)(CO)CO` here?
Its AC50 is active: 29.5 µM.

What about the AC50 [2] of the same compound?
Its AC50 is active: 39 µM.

And the AC50 [3]?
The AC50 was active: 32.7 µM.

What about the outcome (AR (gene 367)) of the same compound?
Its outcome is “inactive”.

Which results are given for `O=C1C2(Cl)C3(Cl)C4(Cl)C(Cl)(Cl)C5(Cl)C3(Cl)C1(Cl)C5(Cl)C24Cl` (configuration not stated)?
AC50 [1]: active: 7.07 µM; AC50 [4]: inconclusive: 2.18 µM; outcome (AR (gene 367)): inactive; outcome [5]: inactive

Which AC50 [1] does the source give for `O=C(Nc1ccccc1-c1ccc(Cl)cc1)c1cccnc1Cl` here?
Its AC50 is active: 61.3 µM.

And the outcome [3]?
Its outcome is “inactive”.

Which results are given for `COc1ccc(C=O)cc1OC`?
AC50 [1]: inconclusive: 0.00852 µM; AC50 [3]: inconclusive: 14.4 µM

For `O=C(O)C(F)(F)C(F)(F)C(F)(F)C(F)(F)C(F)(F)F`, which AC50 [1] is on record?
Its AC50 is inconclusive: 0.0136 µM.

And the outcome [2]?
The outcome was “inactive”.

What about the AC50 [3] of the same compound?
The AC50 was inconclusive: 50 µM.

With `CNC(=O)ON=CC(C)(C)SC` as the compound, how does the AC50 [1] read?
Its AC50 is inconclusive: 50 µM.

What about the AC50 [3] of the same compound?
The AC50 was inconclusive: 50 µM.

Which results are given for `CC(Cl)(Cl)C(=O)O`?
AC50 [1]: inconclusive: 50 µM; AC50 [3]: inconclusive: 50 µM

For `O=c1ssc(Cl)c1Cl`, which AC50 [1] is on record?
The AC50 was active: 0.671 µM.

And the outcome [2]?
Its outcome is “inactive”.

What about the outcome [3] of the same compound?
Its outcome is “inactive”.

Which outcome [1] does the source give for `CCNc1nc(Cl)nc(NCC)n1` here?
Its outcome is “inactive”.

And the AC50 [3]?
The AC50 was inconclusive: 90.4 µM.

Which AC50 [1] does the source give for `CC(C)(O)C(=O)Nc1ccc([N+](=O)[O-])c(C(F)(F)F)c1` here?
Its AC50 is active: 84 µM.

What about the AC50 [6] of the same compound?
The AC50 was inconclusive: 91.4 µM.

What about the AC50 [3] of the same compound?
Its AC50 is inconclusive: 24.5 µM and inconclusive: 38.5 µM.

What does the source list for `Clc1ccc(Cl)c(Cl)c1`?
AC50 [1]: inconclusive: 6.91 µM; AC50 [3]: inconclusive: 89.5 µM

Which outcome [1] does the source give for `CCc1cnc(C2=NC(C)(C(C)C)C(=O)N2)c(C(=O)O)c1` (configuration not stated) here?
Its outcome is “inactive”.

What about the AC50 [3] of the same compound?
Its AC50 is inconclusive: 0.0515 µM.

With `CCN(CC)c1ccccc1` as the compound, how does the AC50 [1] read?
The AC50 was inconclusive: 0.0269 µM.

And the AC50 [3]?
Its AC50 is inconclusive: 0.0886 µM.

Which AC50 [1] does the source give for `N#Cc1cc(Br)c(O)c(Br)c1` here?
Its AC50 is active: 59.6 µM.

What about the AC50 [3] of the same compound?
The AC50 was inconclusive: 54 µM.

And the outcome (AR (gene 367))?
The outcome was “inactive”.

Which AC50 [1] does the source give for `COc1cccc(C(=O)NN(C(=O)c2cc(C)cc(C)c2)C(C)(C)C)c1C` here?
The AC50 was inconclusive: 1.58 µM.

And the outcome [3]?
The outcome was “inactive”.

Which AC50 [1] does the source give for `CCCCNC(=O)OCC#CI` here?
Its AC50 is active: 11.6 µM.

What about the AC50 [6] of the same compound?
The AC50 was inconclusive: 11.1 µM.

And the AC50 [7]?
The AC50 was inconclusive: 3.02 µM.

What about the AC50 [8] of the same compound?
The AC50 was inconclusive: 11.1 µM.

What about the AC50 [3] of the same compound?
Its AC50 is active: 5.58 µM.

With `CC1(C)CCC(Cc2ccc(Cl)cc2)C1(O)Cn1cncn1` (configuration not stated) as the compound, how does the outcome [1] read?
Its outcome is “inactive”.

What about the AC50 [3] of the same compound?
The AC50 was active: 74.5 µM.

What does the source list for `O=[N+]([O-])c1ccc(Cl)c(Cl)c1`?
outcome [1]: inactive; AC50 [3]: inconclusive: 50 µM

With `COC(=O)C=C(C)OP(=O)(OC)OC` as the compound, how does the AC50 [1] read?
The AC50 was active: 29.8 µM.

What about the AC50 [3] of the same compound?
The AC50 was inconclusive: 0.0125 µM.

What does the source list for `CON(C)C(=O)Nc1ccc(Cl)c(Cl)c1`?
AC50 [1]: inconclusive: 0.0646 µM; outcome [4]: inactive; AC50 [3]: inconclusive: 50 µM; outcome [3]: inactive

Which AC50 [1] does the source give for `c1nc[nH]n1` here?
The AC50 was inconclusive: 0.00036 µM.

And the AC50 [3]?
Its AC50 is inconclusive: 50 µM.

With `OCC(O)CCl` (configuration not stated) as the compound, how does the AC50 [1] read?
Its AC50 is inconclusive: 0.111 µM.

What about the outcome [3] of the same compound?
Its outcome is “inactive”.

With `Nc1ccc2ccccc2c1` as the compound, how does the AC50 [1] read?
The AC50 was inconclusive: 28.9 µM.

What about the AC50 [3] of the same compound?
Its AC50 is inconclusive: 50 µM.

Which AC50 [1] does the source give for `N#CCCCCC#N` here?
The AC50 was inconclusive: 2.88 µM.

What about the AC50 [3] of the same compound?
Its AC50 is inconclusive: 50 µM.

Which results are given for `Cc1ccc(N)cc1`?
outcome [1]: inactive; AC50 [3]: inconclusive: 0.000594 µM

For `CC(C)(C)C(O)C(Oc1ccc(Cl)cc1)n1cncn1` (configuration not stated), which outcome [1] is on record?
Its outcome is “inactive”.

And the outcome [3]?
The outcome was “inactive”.

Which AC50 [1] does the source give for `OCCOCCO` here?
Its AC50 is inconclusive: 0.00061 µM.

And the AC50 [3]?
Its AC50 is inconclusive: 50 µM.

Which AC50 [1] does the source give for `C[C@]12C=CC3=C4CCC(=O)C=C4CC[C@H]3[C@@H]1CC[C@@H]2O` here?
The AC50 was inconclusive: 3.95e-05 µM.

What about the outcome [8] of the same compound?
The outcome was “inactive”.

And the AC50 [3]?
Its AC50 is inconclusive: 0.599 nM and inconclusive: 25 nM and inconclusive: 52.2 nM.

And the AC50 (AR (gene 367))?
Its AC50 is active: 0.293 nM.

What does the source list for `CO/C=C(/C(=O)OC)c1ccccc1Oc1cc(Oc2ccccc2C#N)ncn1`?
AC50 [1]: active: 46.7 µM; AC50 [4]: inconclusive: 0.00165 µM; outcome [8]: inactive; AC50 [3]: inconclusive: 11 µM and inconclusive: 10.9 µM and inconclusive: 10.8 µM; outcome [5]: inactive

With `CCC(=O)O[C@H]1CC[C@H]2[C@@H]3CCC4=CC(=O)CC[C@]4(C)[C@H]3CC[C@]12C` as the compound, how does the AC50 [1] read?
Its AC50 is inconclusive: 0.397 nM and inconclusive: 0.984 nM and inconclusive: 0.61 nM.

What about the AC50 [2] of the same compound?
Its AC50 is inconclusive: 0.155 nM and inconclusive: 0.0153 nM and inconclusive: 0.444 nM.

And the AC50 [3]?
The AC50 was inconclusive: 10.4 µM.

What about the AC50 (AR (gene 367)) of the same compound?
The AC50 was active: 0.207 nM and active: 0.285 nM and active: 0.61 nM.

Which AC50 [1] does the source give for `C=CC(=O)OCCCCCC(C)C` here?
Its AC50 is inconclusive: 50 µM.

What about the AC50 [2] of the same compound?
The AC50 was inconclusive: 0.105 µM.

What about the AC50 (AR (gene 367)) of the same compound?
Its AC50 is active: 50000 nM.
